# Patent publication EP4650002A1 (Ludwig-Maximilians-Universität, priority 2024, dated 2025)
# Protein sequences, listed by entry. Tags and fused reporters are not part of them. Residues count along the entry.
# UniProt Q9Y466, 155-383 limits assumed: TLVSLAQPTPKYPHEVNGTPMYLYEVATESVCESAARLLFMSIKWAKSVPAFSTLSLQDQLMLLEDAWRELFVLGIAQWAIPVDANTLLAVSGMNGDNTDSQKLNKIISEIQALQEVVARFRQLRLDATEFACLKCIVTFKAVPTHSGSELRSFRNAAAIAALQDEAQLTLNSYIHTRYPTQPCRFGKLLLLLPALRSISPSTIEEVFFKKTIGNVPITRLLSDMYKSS
# The name of at least one read-out is uncertain. Some entries repeat one wording, which the source may state once for all of them.
# Molecular target: T1, human TLX (Homo sapiens, UniProt Q9Y466)
# T1 construct: expressed in transfected cells; host or cells: HEK293T
# Experiment: Gal4 hybrid reporter gene assay (TLX modulation)
# Format: cell-based
# Settings: increase in reporter activity (>1) = inverse agonism
# Experimental: In the Tables, the TLX relative reporter activity is expressed as EC50 (in µM) for each listed compound. "EC50" refers to a measure of the concentration of a compound which induces a biological response halfway between the baseline and maximum after a specified exposure time. […] The EC50 is measured via a hybrid reporter gene assay, employing the transfection of a reporter (firefly luciferase with Gal4 response element), a control gene (Renilla luciferase), a transcriptional activator (Gal4-VP16) and a hybrid receptor consisting of the TLX ligand binding domain (LBD) and the Gal4 DNA binding domain (DBD).
# Hybrid reporter gene assays. […] After 24 h, medium was changed to Opti-MEM without supplements and cells were transiently transfected using Lipofectamine LTX reagent (Invitrogen, Carlsbad, CA, USA) according to the manufacturer's protocol. Five hours after transfection, cells were incubated with the test compounds in Opti-MEM supplemented with penicillin (100 U/mL), streptomycin (100 µg/mL) and 0.1% DMSO for 16 h before luciferase activity was measured using the Dual-Glo Luciferase Assay System (Promega) according to the manufacturer's protocol on a Tecan Spark luminometer (Tecan Deutschland GmbH, Crailsheim, Germany). Firefly luminescence was divided by Renilla luminescence and multiplied by 1000 resulting in relative light units (RLU) to normalize for transfection efficiency and cell growth. Fold activation was obtained by dividing the mean RLU of test compound by the mean RLU of the untreated control. All samples were tested in at least three biologically independent experiments in duplicates. For dose-response curve fitting and calculation of EC50 values, the equation "[Agonist] vs. response -- Variable slope (four parameters)" was used in GraphPad Prism (version 7.00, GraphPad Software, La Jolla, CA, USA).
compound,measurement,value
"Cc1cc(-c2cc(N)cc(C(F)(F)F)c2)cs1 [compound 59, 3-(5-methylthiophen-3-yl)-5-(trifluoromethyl)aniline]",type of TLX modulation (words in the EC50 column),inverse agonist
"Cc1cc(C)c(-c2cc(N)cc(C(F)(F)F)c2)s1 [compound 56, 3-(3,5-dimethylthiophen-2-yl)-5-(trifluoromethyl)aniline]",type of TLX modulation (words in the EC50 column),inverse agonist
"Cc1ccc(-c2cc(N)cc(C(F)(F)F)c2)s1 [compound 55, 3-(5-methylthiophen-2-yl)-5-(trifluoromethyl)aniline]",type of TLX modulation (words in the EC50 column),inverse agonist
